No constants are given. Whether binding was seen depends on the method and setting. Binding seen in cells or lysates may run through a third protein. Binding can be weak; no strength is given.
Molecular target: T1, sperm acrosome membrane-associated protein 1 (SPACA1) (mouse (endogenous in cauda epididymis)) (UniProt Q9DA48)
T1 sequence: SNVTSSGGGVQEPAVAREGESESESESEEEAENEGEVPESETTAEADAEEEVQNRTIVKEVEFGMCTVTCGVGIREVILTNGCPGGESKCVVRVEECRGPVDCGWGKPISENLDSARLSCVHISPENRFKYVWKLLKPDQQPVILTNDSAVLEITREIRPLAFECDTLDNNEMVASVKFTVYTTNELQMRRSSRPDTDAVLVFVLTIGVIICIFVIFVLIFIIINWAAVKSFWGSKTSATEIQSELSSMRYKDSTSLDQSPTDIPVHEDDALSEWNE
Experiment: co-IP; cauda epididymal extracts in NP-40 lysis buffer (50 mM Tris, 150 mM NaCl, 0.5% NP-40, pH 7.5); immunoprecipitation with anti-SPACA1 antibody overnight at 4 °C, Protein A/G beads, rabbit IgG as negative control; western blotting

- binding: binds
Substance: CCDC28A (coiled-coil domain containing 28A)

Source: article PMC11006775
